Results on 18 compounds are retold here after PubChem BioAssay AID200 (DTP/NCI, 2004).

The list is a part of this screen's results and no random one: it is rich in T/C values a quarter to a half above the control, in often repeated tests (any T/C) and in doses without a T/C. Further doses and runs are listed elsewhere. T/C is the treated group as % of the vehicle group. Some doses have a count of surviving animals in place of a T/C: the source files T/C as zero there, which appears to mark a toxic dose or a test without result, not a measured value. Some survivor counts are full or nearly so, which does not show that the dose was tolerated: survival well below the control is almost never listed, so the zero probably covers shortened survival too. Counts of survivors are from the toxicity check (mostly the fifth day) where no day follows; animals may have died later. Schedules are NCI's codes, taken here to give the interval after Q, in days (D) or hours (H), and the number of doses after X. Brackets with × count equal records among those shown. Some doses were run more than once; the values are given in rising order. For survival time, this PubChem deposit counts one and a half times the control or more as active, and values a quarter to a half above the control carry no call in these data; other NCI protocols may use other cut-offs. Some T/C values are followed by the survivors on the day toxicity was checked, most often the fifth; without a count, all were alive then. Where a SMILES comes first, the peptide text is derived from it. The star is where a group is joined. Cbz = O=C(OCc1ccccc1)*; Bn = c1ccc(C*)cc1

This test deals with B6C3F1 mice, B16 melanoma ip, median survival T/C. Put plainly: NCI In Vivo Anticancer Drug Screen. Data for tumor model B16 Melanoma (intraperitoneal) in B6C3F1 mice. The conditions noted are these: T/C endpoint: median survival time, schedule: Q01DX009 (ip), higher T/C = longer survival. The essentials:
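Mice bearing transplanted tumor were dosed with compound or vehicle, and survival was recorded. Activity is expressed as the treated-group measurement (T) divided by the vehicle control measurement (C).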

The mark [1] stands for this setting: dose: 0.5 mg/kg/injection, vehicle: saline + alcohol.
Setting [2] is: dose: 1.0 mg/kg/injection, vehicle: saline + alcohol.
The mark [3] stands for this setting: dose: 2.0 mg/kg/injection, vehicle: saline + alcohol.
Where [4] appears, read: dose: 20.0 mg/kg/injection, vehicle: saline.
Setting [5] is: dose: 20.0 mg/kg/injection, vehicle: saline with Tween-80.

For the compound `COC(=O)[C@@]12OC[C@]34[C@H]([C@@H](O)[C@@H]1O)[C@@]1(C)CC(=O)C(O)=C(C)[C@@H]1C[C@H]3OC(=O)[C@H](OC(=O)/C=C(\C)C(C)C)[C@@H]24`, the T/C reads like this: (dose: 0.06 mg/kg/injection, vehicle: saline + alcohol) 132 % of control; (dose: 0.12 mg/kg/injection, vehicle: saline + alcohol) 134 % of control; (dose: 0.25 mg/kg/injection, vehicle: saline + alcohol) 143, 158, 174, 175, 179, 183 % of control; under setting [1], 160, 163 (2×), 172 [9 of 10 alive], 190 % of control; under setting [2], 161, 164 [8 of 9 alive], 172, 184, 191 % of control; under setting [3], 158, 183, 183 [8 of 9 alive], 187 % of control. In addition, the survivor count was 7 of 10 under setting [1]; 7 of 10 under setting [2]; 3 of 10 and 8 of 10 under setting [3]; 0 of 10, 1 of 10, 4 of 10 (dose: 4.0 mg/kg/injection, vehicle: saline + alcohol).
As to `CCN(CC)c1ccc2cc(-c3nc4ccccc4n3C)c(=O)oc2c1`, where the note is “dose: 50.0 mg/kg/injection, vehicle: Klucel (hydroxypropylcellulose) (HPC)”, the T/C was 127 and 134 % of control. In addition, the survivor count by setting is: (dose: 100.0 mg/kg/injection, vehicle: Klucel (hydroxypropylcellulose) (HPC)) 2 of 10 and 9 of 10; (dose: 200.0 mg/kg/injection, vehicle: Klucel (hydroxypropylcellulose) (HPC)) 0 of 10 and 2 of 10.
Regarding `COc1cc(C)c2c(c1C=O)Oc1c(c(C)c(O)c3c1C(O)OC3=O)OC2=O` (stereo not drawn), where the note is “dose: 100.0 mg/kg/injection, vehicle: saline”, the survivor count is reported as 7 of 10.
Take `ClCCCN1CCN(CCCl)CC1`: the T/C is, setting by setting: (dose: 5.0 mg/kg/injection, vehicle: saline) 93 [9 of 10 alive], 130, 153, 178 % of control; (dose: 10.0 mg/kg/injection, vehicle: saline) 108, 149, 191, 260 % of control; under setting [4], 106 % of control. Also, the survivor count is on record as 10 of 10 under setting [4] and 5 of 10, 8 of 10, 10 of 10 (dose: 40.0 mg/kg/injection, vehicle: saline).
In the case of `C=C1C(O)C2OC3(CCC(/C=C/C(C)C4CC5(C)SC5C5(OC(CC(C)(O)C(=O)O)CCC5O)O4)O3)CCC2OC1C(O)CC(C)C1OC2(CCCCO2)CCC1C` (stereo not drawn), the T/C (dose: 10.0 micrograms/kg/injection, vehicle: saline + alcohol) was 131 % of control.
For `O=C1c2ccccc2C(=O)c2c3c(cc(NCCNCCO)c21)N(CCO)CCN3`, the survivor count (dose: 200.0 mg/kg/injection, vehicle: DMSO) was 8 of 10 and the survivor count (dose: 400.0 mg/kg/injection, vehicle: DMSO) is reported as 0 of 10.
With `C/C=C1\C[C@@H]2C(OC)Nc3cc(O)c(OC)cc3C(=O)N2C1` (stereo partly drawn), for the setting “dose: 0.25 mg/kg/injection, vehicle: suspension in saline”, the T/C is 129 % of control [9 of 10 alive]. The survivor count is 8 of 10 (dose: 0.5 mg/kg/injection, vehicle: suspension in saline) and 5 of 10 (dose: 1.0 mg/kg/injection, vehicle: suspension in saline).
For the compound `CCCOC(=O)c1nc(N(CC2CCCCC2)C(=O)NC)sc1/N=C/c1ccccc1`, the survivor count (dose: 72.0 mg/kg/injection, vehicle: saline with Tween-80) is reported as 10 of 10.
`COc1ccc(C(=O)CC2CCCC(CC(=O)c3ccc(OC)cc3)N2C)cc1` (stereo not drawn): the survivor count is given as 5 of 10 (dose: 200.0 mg/kg/injection, vehicle: saline with Tween-80) and 0 of 10 (dose: 400.0 mg/kg/injection, vehicle: saline with Tween-80).
With `COc1cc2cc(c1Cl)N1CC(=O)C(C)(O)C(=O)N(C)C(C)C(=O)OC(CC1=O)C1(C)OC1C(C)C1CC(O)(NC(=O)O1)C(OC)/C=C\C=C(\C)C2OC` (stereo not drawn), the survivor count was 10 of 10 (dose: 32.0 micrograms/kg/injection, vehicle: distilled water + alcohol); 9 of 10 (dose: 64.0 micrograms/kg/injection, vehicle: distilled water + alcohol); 3 of 10 (dose: 128.0 micrograms/kg/injection, vehicle: distilled water + alcohol).
`CNC(=O)OCc1c(COC(=O)NC)c(-c2ccccc2)n(C)c1-c1ccccc1`: the T/C reads like this: (dose: 3.12 mg/kg/injection, vehicle: distilled water + Tween-80) 128 % of control; (dose: 6.25 mg/kg/injection, vehicle: distilled water + Tween-80) 140 % of control. The survivor count is 10 of 10 (dose: 50.0 mg/kg/injection, vehicle: distilled water + Tween-80) and 7 of 10 (dose: 100.0 mg/kg/injection, vehicle: distilled water + Tween-80).
Consider `CC(C)C(NC(=O)C(CSCc1ccccc1)NC(=O)OCc1ccccc1)C(=O)O` (stereo not drawn) (Cbz-Cys(Bn)-Val-OH; configuration not given here), for which, where the note is “dose: 400.0 mg/kg/injection, vehicle: Klucel (hydroxypropylcellulose) (HPC)”, the survivor count is on record as 0 of 10.
For `Nc1ccc(Cn2ccc3c4c(N)nc(N)nc4ccc32)cc1`, the survivor count by setting is: under setting [5], 10 of 10 (2×); (dose: 40.0 mg/kg/injection, vehicle: saline with Tween-80) 0 of 10 (2×).
For the compound `CC(O)C1(O)C(O)CC(OC2c3cc4c(c(O)c3[C@@H]3C[C@@]2(C)OC32C=c3cc[nH]c3=N2)C(=O)c2cccc(O)c2C4=O)OC1C` (stereo partly drawn), the T/C by setting is: (dose: 6.25 mg/kg/injection, vehicle: saline with Tween-80) 137 % of control; (dose: 12.5 mg/kg/injection, vehicle: saline with Tween-80) 132 % of control; (dose: 25.0 mg/kg/injection, vehicle: saline with Tween-80) 146 % of control. Further, the survivor count is on record as 10 of 10 (dose: 50.0 mg/kg/injection, vehicle: saline with Tween-80) and 1 of 10 (dose: 100.0 mg/kg/injection, vehicle: saline with Tween-80).
For the compound `Cc1cc([NH-])c([NH-])cc1C.[Cl][Pt+2][Cl]`, the T/C by setting is: (dose: 2.5 mg/kg/injection, vehicle: saline with Tween-80) 135 % of control; (dose: 5.0 mg/kg/injection, vehicle: saline with Tween-80) 143 % of control. In addition, under setting [5], the survivor count is recorded as 10 of 10.
In the case of `CCN(CC)CCCC(C)Nc1c2ccc(Cl)cc2nc2ccc(OC)cc12` (stereo not drawn), the T/C (dose: 60.0 mg/kg/injection, vehicle: Klucel (hydroxypropylcellulose) (HPC)) is 138 % of control. For the same compound, the survivor count (dose: 120.0 mg/kg/injection, vehicle: Klucel (hydroxypropylcellulose) (HPC)) is recorded as 8 of 10.
For the compound `[Cl][Pt+2][Cl].[NH-]c1ccc(C(=O)c2ccccc2)cc1[NH-]`, the T/C (dose: 160.0 mg/kg/injection, vehicle: saline with Tween-80) is 127 % of control [9 of 10 alive].
For the compound `O=C1c2ccccc2CCC1Br` (stereo not drawn), the survivor count is on record as 10 of 10 (dose: 6.0 mg/kg/injection, vehicle: DMSO); 7 of 7 (dose: 25.0 mg/kg/injection, vehicle: DMSO); 5 of 7 (dose: 50.0 mg/kg/injection, vehicle: DMSO); 0 of 7 (dose: 100.0 mg/kg/injection, vehicle: DMSO).
